The results in this text go back to the supplement of paper PMC11006884.

Amino acid sequences for entries named in this document (tags omitted). A change or cut given only in a name is not applied to a line headed by its entry.
UniProt Q93008, whole entry, looked up: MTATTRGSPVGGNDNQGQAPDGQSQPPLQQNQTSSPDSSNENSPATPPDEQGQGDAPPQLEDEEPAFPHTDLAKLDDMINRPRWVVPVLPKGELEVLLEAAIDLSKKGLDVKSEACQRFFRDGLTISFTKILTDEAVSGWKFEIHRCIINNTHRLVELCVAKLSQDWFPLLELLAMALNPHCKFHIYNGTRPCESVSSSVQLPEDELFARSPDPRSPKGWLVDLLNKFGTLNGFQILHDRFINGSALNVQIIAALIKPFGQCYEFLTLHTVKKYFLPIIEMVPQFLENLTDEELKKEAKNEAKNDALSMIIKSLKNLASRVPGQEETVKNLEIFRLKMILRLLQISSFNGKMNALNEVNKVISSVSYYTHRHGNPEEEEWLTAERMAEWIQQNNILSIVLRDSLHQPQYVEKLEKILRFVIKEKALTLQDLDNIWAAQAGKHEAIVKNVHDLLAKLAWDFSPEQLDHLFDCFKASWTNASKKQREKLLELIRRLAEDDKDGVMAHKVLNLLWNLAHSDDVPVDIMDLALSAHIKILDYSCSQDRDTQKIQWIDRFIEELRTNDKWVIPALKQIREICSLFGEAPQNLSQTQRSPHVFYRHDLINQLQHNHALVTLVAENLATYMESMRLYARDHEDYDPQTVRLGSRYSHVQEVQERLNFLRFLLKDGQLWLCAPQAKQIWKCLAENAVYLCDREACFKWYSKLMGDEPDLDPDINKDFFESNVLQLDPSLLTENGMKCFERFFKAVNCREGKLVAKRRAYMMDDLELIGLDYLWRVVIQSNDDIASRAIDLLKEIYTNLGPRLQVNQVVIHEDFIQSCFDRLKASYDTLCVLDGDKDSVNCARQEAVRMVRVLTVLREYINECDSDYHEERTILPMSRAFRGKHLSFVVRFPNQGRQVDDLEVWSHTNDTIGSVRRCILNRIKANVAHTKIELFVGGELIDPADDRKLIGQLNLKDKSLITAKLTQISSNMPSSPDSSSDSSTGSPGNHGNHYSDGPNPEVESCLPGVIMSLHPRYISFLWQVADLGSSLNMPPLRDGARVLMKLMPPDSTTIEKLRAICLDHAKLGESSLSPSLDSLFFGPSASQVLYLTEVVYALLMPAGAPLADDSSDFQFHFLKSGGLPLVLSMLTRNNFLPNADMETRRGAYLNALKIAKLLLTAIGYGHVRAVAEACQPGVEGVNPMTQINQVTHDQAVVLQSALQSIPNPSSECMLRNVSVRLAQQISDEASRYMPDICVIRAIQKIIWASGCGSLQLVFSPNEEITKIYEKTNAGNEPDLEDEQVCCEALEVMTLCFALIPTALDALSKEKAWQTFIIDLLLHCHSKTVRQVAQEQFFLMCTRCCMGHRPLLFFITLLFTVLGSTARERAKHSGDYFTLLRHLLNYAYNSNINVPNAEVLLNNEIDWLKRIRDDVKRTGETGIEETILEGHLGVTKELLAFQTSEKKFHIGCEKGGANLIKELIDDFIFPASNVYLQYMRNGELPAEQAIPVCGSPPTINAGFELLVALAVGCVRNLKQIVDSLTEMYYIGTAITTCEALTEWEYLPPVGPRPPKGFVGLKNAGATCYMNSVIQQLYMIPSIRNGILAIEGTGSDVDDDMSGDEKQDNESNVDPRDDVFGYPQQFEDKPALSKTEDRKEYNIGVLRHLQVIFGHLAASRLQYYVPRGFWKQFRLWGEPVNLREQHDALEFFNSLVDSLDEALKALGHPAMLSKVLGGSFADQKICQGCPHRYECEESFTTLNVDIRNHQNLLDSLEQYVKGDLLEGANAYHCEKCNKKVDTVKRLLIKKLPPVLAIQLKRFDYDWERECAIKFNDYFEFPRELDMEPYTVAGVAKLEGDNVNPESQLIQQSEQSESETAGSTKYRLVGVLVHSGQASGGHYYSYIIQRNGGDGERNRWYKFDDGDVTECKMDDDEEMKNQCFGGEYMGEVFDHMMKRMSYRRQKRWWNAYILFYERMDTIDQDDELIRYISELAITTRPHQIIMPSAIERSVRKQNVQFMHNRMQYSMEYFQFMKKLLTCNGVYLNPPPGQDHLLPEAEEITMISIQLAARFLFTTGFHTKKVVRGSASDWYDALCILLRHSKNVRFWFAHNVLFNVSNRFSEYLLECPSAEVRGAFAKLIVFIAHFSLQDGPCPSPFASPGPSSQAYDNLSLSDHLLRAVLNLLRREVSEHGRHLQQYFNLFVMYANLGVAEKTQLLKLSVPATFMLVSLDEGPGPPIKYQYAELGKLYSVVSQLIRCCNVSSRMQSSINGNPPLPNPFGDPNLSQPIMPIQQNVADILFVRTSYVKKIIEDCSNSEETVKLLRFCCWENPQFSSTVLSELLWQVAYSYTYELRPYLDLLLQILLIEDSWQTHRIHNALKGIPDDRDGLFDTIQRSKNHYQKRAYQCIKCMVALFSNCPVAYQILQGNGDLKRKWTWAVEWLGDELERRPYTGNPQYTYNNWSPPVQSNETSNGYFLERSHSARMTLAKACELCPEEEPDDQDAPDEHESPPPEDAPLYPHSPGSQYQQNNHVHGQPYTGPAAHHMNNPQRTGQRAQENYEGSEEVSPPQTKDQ
UniProt Q92878: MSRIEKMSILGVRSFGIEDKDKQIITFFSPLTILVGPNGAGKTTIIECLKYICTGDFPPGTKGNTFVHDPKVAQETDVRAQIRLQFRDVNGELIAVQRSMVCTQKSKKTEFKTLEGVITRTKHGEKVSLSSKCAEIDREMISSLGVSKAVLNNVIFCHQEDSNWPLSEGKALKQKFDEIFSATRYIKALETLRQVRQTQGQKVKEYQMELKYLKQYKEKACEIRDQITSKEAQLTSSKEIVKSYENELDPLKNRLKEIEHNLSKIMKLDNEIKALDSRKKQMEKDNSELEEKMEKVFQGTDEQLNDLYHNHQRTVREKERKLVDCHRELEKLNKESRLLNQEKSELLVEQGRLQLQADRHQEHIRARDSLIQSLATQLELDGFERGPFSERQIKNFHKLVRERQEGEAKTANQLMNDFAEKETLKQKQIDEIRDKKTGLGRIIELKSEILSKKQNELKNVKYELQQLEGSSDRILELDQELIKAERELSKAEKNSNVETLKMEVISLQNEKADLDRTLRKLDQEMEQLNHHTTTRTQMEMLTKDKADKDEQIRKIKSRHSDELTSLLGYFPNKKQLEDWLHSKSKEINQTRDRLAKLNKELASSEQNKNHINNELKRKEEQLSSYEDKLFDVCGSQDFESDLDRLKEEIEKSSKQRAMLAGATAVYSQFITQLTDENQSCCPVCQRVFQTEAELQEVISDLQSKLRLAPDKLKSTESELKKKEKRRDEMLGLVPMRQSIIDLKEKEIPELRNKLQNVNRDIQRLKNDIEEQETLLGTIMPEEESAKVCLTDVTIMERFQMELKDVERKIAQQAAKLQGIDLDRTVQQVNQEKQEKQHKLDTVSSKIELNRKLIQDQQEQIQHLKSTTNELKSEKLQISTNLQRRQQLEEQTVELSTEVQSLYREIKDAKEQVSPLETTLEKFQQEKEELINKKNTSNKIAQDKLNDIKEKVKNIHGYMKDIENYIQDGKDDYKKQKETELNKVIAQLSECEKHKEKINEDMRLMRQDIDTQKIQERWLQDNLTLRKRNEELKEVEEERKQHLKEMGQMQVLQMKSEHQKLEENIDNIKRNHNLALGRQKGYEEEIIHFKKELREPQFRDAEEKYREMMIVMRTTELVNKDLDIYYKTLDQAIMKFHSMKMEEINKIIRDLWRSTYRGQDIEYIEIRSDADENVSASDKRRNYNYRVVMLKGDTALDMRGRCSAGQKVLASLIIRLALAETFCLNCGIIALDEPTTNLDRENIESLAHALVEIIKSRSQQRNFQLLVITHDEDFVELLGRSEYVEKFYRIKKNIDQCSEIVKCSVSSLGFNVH
UniProt Q92543: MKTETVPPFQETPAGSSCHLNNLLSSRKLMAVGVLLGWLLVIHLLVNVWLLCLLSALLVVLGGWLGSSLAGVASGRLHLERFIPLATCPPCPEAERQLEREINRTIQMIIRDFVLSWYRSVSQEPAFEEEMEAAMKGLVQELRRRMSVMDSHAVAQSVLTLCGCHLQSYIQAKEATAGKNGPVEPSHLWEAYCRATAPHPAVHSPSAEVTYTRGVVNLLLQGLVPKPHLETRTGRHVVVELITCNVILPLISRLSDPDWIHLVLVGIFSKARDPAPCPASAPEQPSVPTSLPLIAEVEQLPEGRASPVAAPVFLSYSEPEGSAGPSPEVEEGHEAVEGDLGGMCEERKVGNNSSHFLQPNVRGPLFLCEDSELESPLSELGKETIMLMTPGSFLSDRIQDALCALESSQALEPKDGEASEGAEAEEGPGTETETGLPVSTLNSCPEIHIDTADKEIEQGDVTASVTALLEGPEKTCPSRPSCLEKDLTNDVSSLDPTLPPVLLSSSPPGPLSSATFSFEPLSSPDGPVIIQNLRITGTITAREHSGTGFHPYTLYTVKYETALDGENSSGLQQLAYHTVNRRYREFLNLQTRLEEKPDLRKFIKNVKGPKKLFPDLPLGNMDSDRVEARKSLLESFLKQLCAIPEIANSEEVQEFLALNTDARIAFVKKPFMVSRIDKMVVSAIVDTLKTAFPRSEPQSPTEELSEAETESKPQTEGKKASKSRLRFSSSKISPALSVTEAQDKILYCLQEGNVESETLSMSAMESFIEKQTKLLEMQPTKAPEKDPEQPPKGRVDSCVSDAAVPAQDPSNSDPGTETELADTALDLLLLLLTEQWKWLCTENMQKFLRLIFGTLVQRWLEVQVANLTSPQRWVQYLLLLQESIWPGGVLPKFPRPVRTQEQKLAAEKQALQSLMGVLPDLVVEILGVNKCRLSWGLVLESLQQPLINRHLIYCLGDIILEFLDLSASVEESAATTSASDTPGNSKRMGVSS
UniProt Q96GX2: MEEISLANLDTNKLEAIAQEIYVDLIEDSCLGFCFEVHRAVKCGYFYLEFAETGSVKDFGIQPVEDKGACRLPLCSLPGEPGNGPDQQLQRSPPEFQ
UniProt Q96EP5: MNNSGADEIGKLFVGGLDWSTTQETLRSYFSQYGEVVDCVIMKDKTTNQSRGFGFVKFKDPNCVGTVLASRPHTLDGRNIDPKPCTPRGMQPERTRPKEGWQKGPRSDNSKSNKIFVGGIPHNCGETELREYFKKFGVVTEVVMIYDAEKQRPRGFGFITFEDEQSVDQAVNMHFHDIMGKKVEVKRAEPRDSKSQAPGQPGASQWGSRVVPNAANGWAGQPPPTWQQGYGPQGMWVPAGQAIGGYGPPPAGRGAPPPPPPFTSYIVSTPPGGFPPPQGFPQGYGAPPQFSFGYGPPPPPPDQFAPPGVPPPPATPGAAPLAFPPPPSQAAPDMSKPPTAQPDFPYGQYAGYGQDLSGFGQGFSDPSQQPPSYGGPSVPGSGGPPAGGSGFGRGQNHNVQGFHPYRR
UniProt Q96F86: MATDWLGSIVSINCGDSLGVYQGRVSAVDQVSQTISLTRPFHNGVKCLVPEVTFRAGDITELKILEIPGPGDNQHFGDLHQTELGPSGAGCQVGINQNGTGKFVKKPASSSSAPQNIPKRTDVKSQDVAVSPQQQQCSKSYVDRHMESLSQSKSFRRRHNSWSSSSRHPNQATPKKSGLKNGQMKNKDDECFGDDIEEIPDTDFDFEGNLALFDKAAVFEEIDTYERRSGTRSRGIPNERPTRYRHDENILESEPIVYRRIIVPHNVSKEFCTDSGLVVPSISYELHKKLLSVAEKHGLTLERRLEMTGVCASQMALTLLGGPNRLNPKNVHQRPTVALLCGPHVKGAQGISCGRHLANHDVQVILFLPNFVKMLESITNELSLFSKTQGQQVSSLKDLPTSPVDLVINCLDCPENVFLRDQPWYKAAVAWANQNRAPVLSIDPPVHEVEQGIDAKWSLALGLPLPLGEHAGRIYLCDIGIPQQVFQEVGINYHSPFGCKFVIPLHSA
UniProt Q93052: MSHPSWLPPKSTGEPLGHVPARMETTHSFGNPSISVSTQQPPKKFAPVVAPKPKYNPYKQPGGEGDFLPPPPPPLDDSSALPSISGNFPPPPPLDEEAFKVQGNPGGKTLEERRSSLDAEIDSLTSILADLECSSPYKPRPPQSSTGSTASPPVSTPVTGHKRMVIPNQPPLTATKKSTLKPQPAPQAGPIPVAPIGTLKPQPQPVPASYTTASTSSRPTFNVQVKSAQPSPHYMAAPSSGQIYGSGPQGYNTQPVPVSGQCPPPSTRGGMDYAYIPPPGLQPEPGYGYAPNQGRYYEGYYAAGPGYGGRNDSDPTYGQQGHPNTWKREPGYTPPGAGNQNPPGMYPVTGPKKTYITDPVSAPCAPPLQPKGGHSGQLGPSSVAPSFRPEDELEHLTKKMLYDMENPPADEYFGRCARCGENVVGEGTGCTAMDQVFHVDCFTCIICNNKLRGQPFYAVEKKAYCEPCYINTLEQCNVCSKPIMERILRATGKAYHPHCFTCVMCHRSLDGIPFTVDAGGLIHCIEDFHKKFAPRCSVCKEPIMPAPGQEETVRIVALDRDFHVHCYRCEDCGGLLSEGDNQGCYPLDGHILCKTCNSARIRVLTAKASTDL

Compound in this experiment: COC(=O)C#Cc1ccccc1 [methyl 3-phenylpropiolate]
In words: log2 ratio of iodoacetamide-alkyne labeling of the cysteine site, DMSO over compound (competition); higher = stronger covalent engagement of the cysteine by the compound, active = 1 or more. The note with it: 500 µM; treatment time 1 h; system: HEK293T cell lysate. Put shortly:
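HEK293T lysate (2 mg/mL) was treated with DMSO or electrophile (500 µM, 1 h, ambient temperature), then iodoacetamide alkyne (1 h), clicked to sCIP-TMT reagents, pooled, trypsin-digested overnight at 37 °C, streptavidin-enriched and acid-eluted. Peptides were run on Orbitrap Eclipse LC-MS/MS with FAIMS and quantified in FragPipe. The log2 competition ratio per cysteine is mean control-channel over mean compound-channel reporter intensity. Duplicate channels and three replicates were used, and cysteines quantified in only one replicate were excluded.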

Only a part is listed here, and it is no random draw.

Regarding UniProt Q93015_C250, the “log2 ratio of iodoacetamide-alkyne labeling” value (shortened to “log2 ratio”) was inactive: 0.513.
On to USP9X C1212 (UniProt Q93008), for which the “log2 ratio” value was inactive: 0.4.
Take LRRC59 C277 (UniProt Q96AG4): the “log2 ratio” value is inactive: 0.605.
As for USP7 C315 (UniProt Q93009), the “log2 ratio” value was inactive: 0.541.
Turning to UBE2E3 C81 (UniProt Q969T4), the “log2 ratio” value is inactive: 0.412.
Then THOC1 C396 (UniProt Q96FV9), with inactive: 0.492; and SMARCC1 C119 (UniProt Q92922), with inactive: 0.206.
As to GBF1 C685 (UniProt Q92538), the “log2 ratio” value is inactive: 0.144.
Then RAD50 C102 (UniProt Q92878), with inactive: 0.731; and NUP205 C1715 (UniProt Q92621), with inactive: 0.231.
Next, RAD50 C1302 (UniProt Q92878): inactive: 0.5.
Next, UniProt Q96FZ5_C12: inactive: 0.296; UniProt Q92841_C584: inactive: 0.359; TUBGCP3 C17 (UniProt Q96CW5): inactive: 0.523.
As to SNX19 C368 (UniProt Q92543), the “log2 ratio” value is inactive: 0.355.
Then TNPO1 C297 (UniProt Q92973), with inactive: 0.00637; and FAF2 C32 (UniProt Q96CS3), with inactive: 0.0262; and ATXN7L3B C75 (UniProt Q96GX2), with active: 1.03.
DAZAP1 C85 (UniProt Q96EP5): the “log2 ratio” value was inactive: -0.0499.
Regarding ZC3HAV1L C125 (UniProt Q96H79), the “log2 ratio” value is inactive: 0.308.
In the case of USP9X C1808 (UniProt Q93008), the “log2 ratio” value was inactive: 0.0632.
Take MRPS27 C49 (UniProt Q92552): the “log2 ratio” value is inactive: 0.0649.
For the target EDC3 C137 (UniProt Q96F86), the “log2 ratio” value is active: 1.09.
Regarding PHKB C299 (UniProt Q93100), the “log2 ratio” value is inactive: -0.0632.
With SIPA1 C732 (UniProt Q96FS4), the “log2 ratio” value was inactive: 0.266.
Regarding AKAP1 C102 (UniProt Q92667), the “log2 ratio” value is inactive: 0.334.
As to UniProt Q92888_C815, the “log2 ratio” value was inactive: 0.354.
In the case of UBE2F C116 (UniProt Q969M7), the “log2 ratio” value is inactive: -0.308.
As to USP9X C577 (UniProt Q93008), the “log2 ratio” value is inactive: -0.0714.
In the case of RAD50 C133 (UniProt Q92878), the “log2 ratio” value was inactive: 0.678.
Regarding SLC7A6OS C166 (UniProt Q96CW6), the “log2 ratio” value was inactive: 0.807.
As for LPP C262 (UniProt Q93052), the “log2 ratio” value is inactive: 0.291.
In the case of ZC3HAV1L C7 (UniProt Q96H79), the “log2 ratio” value is inactive: 0.269.
Regarding TSC1 C306 (UniProt Q92574), the “log2 ratio” value was inactive: 0.724.
For LRRC59 C131 (UniProt Q96AG4), the “log2 ratio” value was inactive: 0.152.
Turning to APIP C97 (UniProt Q96GX9), the “log2 ratio” value was inactive: 0.129.
Consider USP9X C1566 (UniProt Q93008), for which the “log2 ratio” value is inactive: 0.163.
As for EDC3 C272 (UniProt Q96F86), the “log2 ratio” value was inactive: 0.0953.
Next, DHX38 C20 (UniProt Q92620): active: 1.36; MRPL38 C143 (UniProt Q96DV4): inactive: 0.2; UniProt Q92616_C1482: inactive: 0.19.
Consider TMEM131 C1214 (UniProt Q92545), for which the “log2 ratio” value was inactive: 0.265.
MMAB C132 (UniProt Q96EY8): the “log2 ratio” value is inactive: 0.488.
RNF34 C65 (UniProt Q969K3): the “log2 ratio” value was inactive: 0.0941.
Consider DAZAP1 C39 (UniProt Q96EP5), for which the “log2 ratio” value is inactive: 0.0955.
Take HSPH1 C34 (UniProt Q92598): the “log2 ratio” value is inactive: -0.0617.
For UniProt Q96FZ2_C131, the “log2 ratio” value is inactive: 0.711.
Consider KHSRP C436 (UniProt Q92945), for which the “log2 ratio” value was inactive: 0.136.
PHF3 C1771 (UniProt Q92576): the “log2 ratio” value was inactive: 0.872.
Next, EDC3 C47 (UniProt Q96F86): inactive: 0.179; UniProt Q96BD8_C142: inactive: 0.261.
With HSPH1 C310 (UniProt Q92598), the “log2 ratio” value was inactive: -0.0673.
For the target FUBP1 C148 (UniProt Q96AE4), the “log2 ratio” value was inactive: 0.138.
EDC3 C91 (UniProt Q96F86): the “log2 ratio” value is inactive: 0.374.
For the target DPF2 C295 (UniProt Q92785), the “log2 ratio” value is inactive: 0.175.
Take SMARCC1 C511 (UniProt Q92922): the “log2 ratio” value was inactive: 0.155.
For RAD54L C20 (UniProt Q92698), the “log2 ratio” value was inactive: 0.453.
For POM121 C307 (UniProt Q96HA1), the “log2 ratio” value is inactive: 0.328.
In the case of POM121 C461 (UniProt Q96HA1), the “log2 ratio” value is inactive: 0.43.
Turning to SMARCD1 C460 (UniProt Q96GM5), the “log2 ratio” value is inactive: 0.137.
DAZAP1 C63 (UniProt Q96EP5): the “log2 ratio” value was inactive: 0.183.
Next, GCDH C176 (UniProt Q92947): inactive: 0.229; KHSRP C296 (UniProt Q92945): inactive: 0.00483.
With SYAP1 C283 (UniProt Q96A49), the “log2 ratio” value is inactive: 0.206.
Next, LPP C524 (UniProt Q93052): inactive: 0.117; TMCO6 C57 (UniProt Q96DC7): inactive: 0.394.
As to EFHD2 C53 (UniProt Q96C19), the “log2 ratio” value was inactive: 0.384.
As to SYMPK C686 (UniProt Q92797), the “log2 ratio” value is inactive: 0.151.
On to UBXN4 C186 (UniProt Q92575), for which the “log2 ratio” value was inactive: 0.474.
For the target MCRS1 C84 (UniProt Q96EZ8), the “log2 ratio” value is inactive: 0.916.
Turning to RREB1 C648 (UniProt Q92766), the “log2 ratio” value was inactive: 0.143.
Next, SMARCE1 C274 (UniProt Q969G3): inactive: 0.0379; RPL36AL C88 (UniProt Q969Q0): inactive: 0.698.
Next, ZNF428 C93 (UniProt Q96B54): inactive: 0.191; UniProt Q96HE7_C166: inactive: 0.283.
